Data: paper PMC9636508

By UniProt entry, the sequences of proteins in these tests, tags left out.
UniProt Q9UNF0: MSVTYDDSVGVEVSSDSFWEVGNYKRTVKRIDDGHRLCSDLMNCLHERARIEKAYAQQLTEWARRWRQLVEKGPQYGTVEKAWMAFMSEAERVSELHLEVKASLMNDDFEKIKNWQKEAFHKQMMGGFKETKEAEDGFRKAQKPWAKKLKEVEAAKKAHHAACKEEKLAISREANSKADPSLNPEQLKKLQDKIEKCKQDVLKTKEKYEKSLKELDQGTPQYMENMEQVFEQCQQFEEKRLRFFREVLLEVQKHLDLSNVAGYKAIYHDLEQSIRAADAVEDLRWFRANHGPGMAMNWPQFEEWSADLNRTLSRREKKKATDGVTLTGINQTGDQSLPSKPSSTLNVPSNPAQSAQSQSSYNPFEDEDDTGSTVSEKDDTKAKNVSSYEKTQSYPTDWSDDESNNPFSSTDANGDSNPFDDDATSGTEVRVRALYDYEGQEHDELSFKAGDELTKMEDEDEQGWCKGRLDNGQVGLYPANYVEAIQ
UniProt Q53SF7: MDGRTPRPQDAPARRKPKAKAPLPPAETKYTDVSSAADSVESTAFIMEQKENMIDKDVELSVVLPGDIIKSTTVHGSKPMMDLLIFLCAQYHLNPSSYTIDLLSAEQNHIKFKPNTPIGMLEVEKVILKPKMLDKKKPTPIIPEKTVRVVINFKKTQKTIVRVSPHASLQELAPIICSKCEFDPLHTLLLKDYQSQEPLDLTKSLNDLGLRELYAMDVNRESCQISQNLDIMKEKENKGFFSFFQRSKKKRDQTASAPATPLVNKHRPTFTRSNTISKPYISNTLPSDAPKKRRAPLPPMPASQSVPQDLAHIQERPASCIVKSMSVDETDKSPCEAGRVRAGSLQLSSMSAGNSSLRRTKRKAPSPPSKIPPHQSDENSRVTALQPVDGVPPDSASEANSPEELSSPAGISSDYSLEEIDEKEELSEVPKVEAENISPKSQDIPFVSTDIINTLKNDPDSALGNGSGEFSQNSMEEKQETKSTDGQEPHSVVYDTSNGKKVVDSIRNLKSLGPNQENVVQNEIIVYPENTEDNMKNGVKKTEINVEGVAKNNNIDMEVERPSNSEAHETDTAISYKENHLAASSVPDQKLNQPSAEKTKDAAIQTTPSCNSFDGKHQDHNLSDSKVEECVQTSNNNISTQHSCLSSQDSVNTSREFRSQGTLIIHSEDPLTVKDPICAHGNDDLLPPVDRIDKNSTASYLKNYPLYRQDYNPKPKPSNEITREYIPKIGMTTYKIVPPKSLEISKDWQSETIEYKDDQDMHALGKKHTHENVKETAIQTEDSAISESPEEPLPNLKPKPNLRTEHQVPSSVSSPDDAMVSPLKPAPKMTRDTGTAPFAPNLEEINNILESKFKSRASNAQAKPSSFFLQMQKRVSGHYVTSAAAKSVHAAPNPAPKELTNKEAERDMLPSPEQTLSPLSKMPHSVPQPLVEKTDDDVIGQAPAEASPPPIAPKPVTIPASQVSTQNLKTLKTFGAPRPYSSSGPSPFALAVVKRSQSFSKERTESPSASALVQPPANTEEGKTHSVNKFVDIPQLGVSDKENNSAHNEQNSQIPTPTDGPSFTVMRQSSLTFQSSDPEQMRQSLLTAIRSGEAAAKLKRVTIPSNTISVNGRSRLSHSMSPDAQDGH

Assays:
[1] = target: PACSIN2, bait of the tandem affinity purification (UniProt Q9UNF0); assay: affinity purification with mass spectrometry; tandem affinity purification with PACSIN2 as bait; cells not told
[2] = target: Cobll1, bait of the tandem affinity purification (UniProt Q53SF7); assay: affinity purification with mass spectrometry; tandem affinity purification with Cobll1 as bait; cells not told

binding [1] | binding [2] | Substance
binds |  | Cobll1, found with the PACSIN2 bait (from UniProt Q53SF7 1-1128)
 | binds | PACSIN2, found by mass spectrometry with the Cobll1 bait (from UniProt Q9UNF0 1-486)

Results are given in words; binding and its absence hold for the method and conditions named. In cells and extracts the contact can be indirect. Here binding means that the protein was enriched with, or labelled near, the bait; the list need not be complete.
